Data as given in patent publication US11857601B2, “Pharmaceutical composition for cancer treatment comprising fusion protein including IL-2 protein and CD80 protein and anticancer drug” (GI INNOVATION, INC., priority 2020, dated 2024).

Key:
LL/2 cell line = assay: mGI-101 and Axitinib in LL/2 allotransplanted tumor model; format: in vivo, C57BL/6 mice; conditions: mGI-101 3 mg/kg IP, Axitinib 30 mg/kg PO
CT26 cells = assay: mGI-101 and Axitinib in CT26 allotransplanted tumor model; conditions: mGI-101 3 mg/kg IP, Axitinib 30 mg/kg PO;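 note: subcutaneous CT26 syngeneic tumors in male BALB/c mice, dosing started once tumors were near 50 mm^3, drugs given orally or intraperitoneally for up to 3 weeks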

## CNC(=O)c1ccccc1Sc1ccc2c(/C=C/c3ccccn3)n[nH]c2c1 [Axitinib, reference compound]
LL/2 cell line; Day 2, mean ± SD
  Tumor growth inhibition: 18.79 ± 28.38%
LL/2 cell line; Day 5, mean ± SD
  Tumor growth inhibition: 2.10 ± 36.27%
LL/2 cell line; Day 7, mean ± SD
  Tumor growth inhibition: 24.30 ± 23.63%
LL/2 cell line; Day 9, mean ± SD
  Tumor growth inhibition: 28.19 ± 23.46%
LL/2 cell line; Day 12, mean ± SD
  Tumor growth inhibition: 22.90 ± 23.42%
LL/2 cell line; Day 14, mean ± SD
  Tumor growth inhibition: 21.82 ± 24.12%
LL/2 cell line; Day 16, mean ± SD
  Tumor growth inhibition: 20.58 ± 21.15 (9) %
LL/2 cell line; Day 19, mean ± SD
  Tumor growth inhibition: 16.55 ± 23.06 (9) %
LL/2 cell line; Day 21, mean ± SD
  Tumor growth inhibition: 20.08 ± 20.18 (9) %
CT26 cells; Day 5, mean ± SD
  Tumor growth inhibition: 32.19 ± 18.64%
CT26 cells; Day 7, mean ± SD
  Tumor growth inhibition: 28.62 ± 24.35%
CT26 cells; Day 9, mean ± SD
  Tumor growth inhibition: 25.81 ± 27.77%
CT26 cells; Day 12, mean ± SD
  Tumor growth inhibition: 35.92 ± 27.44%
CT26 cells; Day 14, mean ± SD
  Tumor growth inhibition: 46.82 ± 25.79 %
CT26 cells; Day 16, mean ± SD
  Tumor growth inhibition: 44.37 ± 28.66 %
CT26 cells; Day 19, mean ± SD
  Tumor growth inhibition: 46.04 ± 31.96 %
CT26 cells; Day 21, mean ± SD
  Tumor growth inhibition: 45.45 ± 37.30 %
